Reference: patent US20060229302A1, “Tricyclic indole derivatives and their use in the treatment of alzheimer's disease” (priority 2003, published 2006)
Structures can show the parent of a compound that is named as a salt. Some of these results come from one statement about several compounds together.

By UniProt entry, the sequences of proteins in these tests, tags left out. Residues count along the entry.
UniProt P56817, 46-501: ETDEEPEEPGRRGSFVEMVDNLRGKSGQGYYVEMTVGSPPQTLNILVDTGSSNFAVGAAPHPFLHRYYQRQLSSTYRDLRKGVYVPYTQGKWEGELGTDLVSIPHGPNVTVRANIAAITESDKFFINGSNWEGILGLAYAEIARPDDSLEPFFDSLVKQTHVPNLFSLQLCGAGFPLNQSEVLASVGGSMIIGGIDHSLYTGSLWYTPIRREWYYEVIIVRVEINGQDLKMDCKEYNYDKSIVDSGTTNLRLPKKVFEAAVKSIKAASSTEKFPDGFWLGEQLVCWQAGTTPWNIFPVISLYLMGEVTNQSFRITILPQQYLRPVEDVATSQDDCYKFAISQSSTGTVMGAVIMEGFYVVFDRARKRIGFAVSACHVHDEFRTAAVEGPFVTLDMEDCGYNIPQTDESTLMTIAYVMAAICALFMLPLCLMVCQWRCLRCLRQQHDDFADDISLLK

molecular target: Asp-2 (Homo sapiens, UniProt P56817); test: Asp-2 inhibitory assay; type: biochemical; details: FAM-[SEVNLDAEFK]-TAMRA substrate, pH 4.5, 1 h room temperature; read-out: inhibition in the Asp-2 inhibitory assay
Procedure: (I) Asp-2 Inhibitory Assay
For each compound being assayed, in a 384 well plate, is added:
This is prepared by diluting 2 ml of a 2 mM DMSO solution of the substrate into 400 ml of buffer (100 mM Sodium acetate pH=4.5, 1 l Milli-Q water, 0.06% Triton X-100 (0.5 ml/l), pH adjusted to 4.5 using glacial acetic acid).
c) 10 μl enzyme solution. This is prepared by diluting 16 ml of a 500 nM enzyme solution into 384 ml of buffer (prepared as above).
Blank wells (enzyme solution replaced by buffer) are included as controls on each plate.

| Structure (SMILES) | IC50 [µM] |
| --- | --- |
| CCc1cn2c3c(cc(C(=O)N[C@@H](Cc4ccccc4)[C@H](O)CNC4CCOCC4)cc13)N(C)S(=O)(=O)C2 [Example E82, 6-Ethyl-N-[(1S,2R)-2-hydroxy-1-(phenylmethyl)-3-(tetrahydro-2H-pyran-4-ylamino)propyl]-1-methyl-1H-[1,2,5]thiadiazino[3,4,5-hi]indole-8-carboxamide 2,2-dioxide formate salt] | < 10 |
| CCc1cn2c3c(cc(C(=O)N[C@@H](Cc4ccccc4)[C@H](O)CNCc4cccc(C(F)(F)F)c4)cc13)NS(=O)(=O)C2 [Example E77, 6-Ethyl-N-[(1S,2R)-2-hydroxy-1-(phenylmethyl)-3-({[3-(trifluoromethyl)phenyl]methyl}amino)propyl]-1H-[1,2,5]thiadiazino[3,4,5-hi]indole-8-carboxamide 2,2-dioxide formate salt] | < 10 |
| CCc1cn2c3c(cc(C(=O)N[C@@H](Cc4cccc(F)c4)[C@H](O)CNC4CCOCC4)cc13)N(C)S(=O)(=O)CC2 [Example E37, 7-Ethyl-N-[(1S,2R)-1-[(3-fluorophenyl)methyl]-2-hydroxy-3-(tetrahydro-2H-pyran-4-ylamino)propyl]-1-methyl-3,4-dihydro-1H-[1,2,5]thiadiazepino[3,4,5-hi]indole-9-carboxamide 2,2-dioxide formate salt] | < 10 |
| CCc1cn2c3c(cc(C(=O)N[C@@H](Cc4cccc(Cl)c4)[C@H](O)CNC)cc13)N(C)S(=O)(=O)CC2 [Example E92, N-[(1S,2R)-1-[(3-Chlorophenyl)methyl]-2-hydroxy-3-(methylamino)propyl]-7-ethyl-1-methyl-3,4-dihydro-1H-[1,2,5]thiadiazepino [3,4,5-hi]indole-9-carboxamide 2,2-dioxide formate salt] | < 10 |
| CC(C)c1cn2c3c(cc(C(=O)N[C@@H](Cc4ccccc4)[C@H](O)CNC4CCCCC4)cc13)N(C)S(=O)(=O)CC2 [Example E23, N-[(1S,2R)-3-(Cyclohexylamino)-2-hydroxy-1-(phenylmethyl)propyl]-1-methyl-7-(1-methylethyl)-3,4-dihydro-1H-[1,2,5]thiadiazepino[3,4,5-hi]indole-9-carboxamide 2,2-dioxide formate salt] | < 10 |
| CCc1cn2c3c(cc(C(=O)N[C@@H](Cc4ccccc4)[C@H](O)CNC4CCOCC4)cc13)N(CC(F)(F)F)S(=O)(=O)CC2 [Example E35, 7-Ethyl-N-[(1S,2R)-2-hydroxy-1-(phenylmethyl)-3-(tetrahydro-2H-pyran-4-ylamino)propyl]-1-(2,2,2-trifluoroethyl)-3,4-dihydro-1H-[1,2,5]thiadiazepino[3,4,5-hi]indole-9-carboxamide 2,2-dioxide formate salt] | < 10 |
| CCc1cn2c3c(cc(C(=O)N[C@@H](Cc4ccccc4)[C@H](O)CN)cc13)N(C)S(=O)(=O)CC2 [Example E89, N-[(1S,2R)-3-Amino-2-hydroxy-1-(phenylmethyl)propyl]-7-ethyl-1-methyl-3,4-dihydro-1H-[1,2,5]thiadiazepino[3,4,5-hi]indole-9-carboxamide 2,2-dioxide] | < 10 |
| CCc1cn2c3c(cc(C(=O)N[C@@H](Cc4ccccc4)[C@H](O)CNCc4cccc(OC)c4)cc13)N(c1ccccc1)S(=O)(=O)CC2 [Example E4, 7-Ethyl-N-[(1S,2R)-2-hydroxy-3-({[3-(methyloxy)phenyl]methyl}amino)-1-(phenylmethyl)propyl]-1-phenyl-3,4-dihydro-1H-[1,2,5]thiadiazepino[3,4,5-hi]indole-9-carboxamide 2,2-dioxide] | < 10 |
| CCCc1cn2c3c(cc(C(=O)N[C@@H](Cc4ccccc4)[C@H](O)CNC4CCOCC4)cc13)N(C)S(=O)(=O)CC2 [Example E46, N-[(1S,2R)-2-Hydroxy-1-(phenylmethyl)-3-(tetrahydro-2H-pyran-4-ylamino)propyl]-1-methyl-7-propyl-3,4-dihydro-1H-[1,2,5]thiadiazepino[3,4,5-hi]indole-9-carboxamide 2,2-dioxide formate salt] | < 10 |
| CCc1cn2c3c(cc(C(=O)N[C@@H](Cc4ccccc4)[C@H](O)CNCc4cnn(CC)c4)cc13)N(C)S(=O)(=O)CC2.O=CO [Example E15, 7-Ethyl-N-[(1S,2R)-3-{[(1-ethyl-1H-pyrazol-4-yl)methyl]amino}-2-hydroxy-1-(phenylmethyl)propyl]-1-methyl-3,4-dihydro-1H-[1,2,5]thiadiazepino[3,4,5-hi]indole-9-carboxamide 2,2-dioxide formate salt] | < 10 |
| CCCc1cn2c3c(cc(C(=O)N[C@@H](Cc4ccccc4)[C@H](O)CNCc4cccc(C(F)(F)F)c4)cc13)N(C)S(=O)(=O)CC2 [Example E44, N-[(1S,2R)-2-Hydroxy-1-(phenylmethyl)-3-({[3-(trifluoromethyl)phenyl]methyl}amino)propyl]-1-methyl-7-propyl-3,4-dihydro-1H-[1,2,5]thiadiazepino[3,4,5-hi]indole-9-carboxamide 2,2-dioxide formate salt] | < 10 |
| CCc1cn2c3c(cc(C(=O)N[C@@H](Cc4ccccc4)[C@H](O)CNCc4ccncc4)cc13)N(C)S(=O)(=O)CC2 [Example E65, 7-Ethyl-N-{(1S,2R)-2-hydroxy-1-(phenylmethyl)-3-[(4-pyridinylmethyl)amino]propyl}-1-methyl-3,4-dihydro-1H-[1,2,5]thiadiazepino[3,4,5-hi]indole-9-carboxamide 2,2-dioxide formate salt] | < 10 |
| CCc1cn2c3c(cc(C(=O)N[C@@H](Cc4cccc(F)c4)[C@H](O)CNC)cc13)N(C)S(=O)(=O)CC2 [Example E93, 7-Ethyl-N-[(1S,2R)-1-[(3-fluorophenyl)methyl]-2-hydroxy-3-(methylamino)propyl]-1-methyl-3,4-dihydro-1H-[1,2,5]thiadiazepino[3,4,5-hi]indole-9-carboxamide 2,2-dioxide formate salt] | < 10 |
| CCc1cn2c3c(cc(C(=O)N[C@@H](Cc4ccccc4)[C@H](O)CNCc4cnc5ccccc5c4)cc13)N(C)S(=O)(=O)CC2 [Example E100, 7-Ethyl-N-{(1S,2R)-2-hydroxy-1-(phenylmethyl)-3-[(3-quinolinylmethyl)amino]propyl}-1-methyl-3,4-dihydro-1H-[1,2,5]thiadiazepino[3,4,5-hi]-indole-9-carboxamide 2,2-dioxide formate salt] | < 10 |
| CCc1cn2c3c(cc(C(=O)N[C@@H](Cc4ccccc4)[C@H](O)CNC(C)C)cc13)N(C)S(=O)(=O)CC2 [Example E17, 7-Ethyl-N-[(1S,2R)-2-hydroxy-3-[(1-methylethyl)amino]-1-(phenylmethyl)propyl]-1-methyl-3,4-dihydro-1H-[1,2,5]thiadiazepino[3,4,5-hi]indole-9-carboxamide 2,2-dioxide formate salt] | < 10 |
| CCCc1cn2c3c(cc(C(=O)N[C@@H](Cc4ccccc4)[C@H](O)CNC4CCCCC4)cc13)N(CC)S(=O)(=O)CC2 [Example E49, N-[(1S,2R)-3-(Cyclohexylamino)-2-hydroxy-1-(phenylmethyl)propyl]-1-ethyl-7-propyl-3,4-dihydro-1H-[1,2,5]thiadiazepino[3,4,5-hi]indole-9-carboxamide 2,2-dioxide formate salt] | < 10 |
| CCc1cn2c3c(cc(C(=O)N[C@@H](Cc4ccccc4)[C@H](O)CNC4CCOCC4)cc13)N(C)S(=O)(=O)C2(C)C [Example E88, 6-Ethyl-N-[(1S,2R)-2-hydroxy-1-(phenylmethyl)-3-(tetrahydro-2H-pyran-4-ylamino)propyl]-1,3,3-trimethyl-1H-[1,2,5]thiadiazino[3,4,5-hi]indole-8-carboxamide 2,2-dioxide formate salt] | < 10 |
| CCc1cn2c3c(cc(C(=O)N[C@@H](Cc4ccccc4)[C@H](O)CNCc4cccc(C)n4)cc13)N(C)S(=O)(=O)CC2 [Example E101, 7-Ethyl-N-[(1S,2R)-2-hydroxy-3-{[(6-methyl-2-pyridinyl)methyl]amino}-1-(phenylmethyl)propyl]-1-methyl-3,4-dihydro-1H-[1,2,5]thiadiazepino[3,4,5-hi]indole-9-carboxamide 2,2-dioxide formate salt] | < 10 |
| CCc1cn2c3c(cc(C(=O)N[C@@H](Cc4cccc(F)c4)[C@H](O)CNC4CCCCC4)cc13)N(C)S(=O)(=O)CC2 [Example E36, N-{(1S,2R)-3-(Cyclohexylamino)-1-[(3-fluorophenyl)methyl]-2-hydroxypropyl}-7-ethyl-1-methyl-3,4-dihydro-1H-[1,2,5]thiadiazepino[3,4,5-hi]indole-9-carboxamide 2,2-dioxide formate salt] | < 10 |
| CCc1cn2c3c(cc(C(=O)N[C@@H](Cc4ccccc4)[C@H](O)CNC4CCOCC4)cc13)N(C(C)C)S(=O)(=O)CC2 [Example E20, 7-Ethyl-N-[(1S,2R)-2-hydroxy-1-(phenylmethyl)-3-(tetrahydro-2H-pyran-4-ylamino)propyl]-1-(1-methylethyl)-3,4-dihydro-1H-[1,2,5]thiadiazepino[3,4,5-hi]indole-9-carboxamide 2,2-dioxide formate salt] | < 10 |
| CCc1cn2c3c(cc(C(=O)N[C@@H](Cc4ccccc4)[C@H](O)CNC4CCCCC4)cc13)NS(=O)(=O)C2 [Example E76, N-[(1S,2R)-3-(Cyclohexylamino)-2-hydroxy-1-(phenylmethyl)propyl]-6-ethyl-1H-[1,2,5]thiadiazino[3,4,5-hi]indole-8-carboxamide 2,2-dioxide formate salt] | < 10 |
| CCc1cn2c3c(cc(C(=O)N[C@@H](Cc4ccccc4)[C@H](O)CNCc4cccc(Br)n4)cc13)N(C)S(=O)(=O)CC2 [Example E96, N-[(1S,2R)-3-{[(6-Bromo-2-pyridinyl)methyl]amino}-2-hydroxy-1-(phenylmethyl)propyl]-7-ethyl-1-methyl-3,4-dihydro-1H-[1,2,5]thiadiazepino[3,4,5-hi]indole-9-carboxamide 2,2-dioxide formate salt] | < 10 |
